Among all 360,000 compounds or so, about 7,500 (2.1%) were called active. Inconclusive means that the source gave no clear call. Such entries were picked first, then a sample of the others. Calls come from the whole dose curve; as a rule, active = well fitted inhibition curve with a large enough effect; inconclusive = small, poorly fitted or top-dose-only effect, or effect the other way; inactive = flat fitted curve, though single readings scatter. Potencies beside an inconclusive call are fits to weak or partial responses and may not hold up.
Test: Nrf2 qHTS screen for inhibitors; note: nearly all actives have a fitted effect of over 60% in size
Settings: A549 ARE-Fluc reporter, luciferase luminescence, 18-24 h; activity change, negative = inhibition: at 46 µM (top of the series)
Procedure, shortened: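 Reporter: ARE-Fluc in A549. Exposure: 18-24 h, 37 °C, 5% CO2, 5% FBS OPTI-MEM. Readouts: fluorescent cytotoxicity (CellTiter-Fluor), then luminescent Nrf2 signal after BugLite.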
% is set by controls: 0 for no effect and ±100 for the full control effect; potency is the fitted concentration of half-maximal effect.

| Compound | Potency | activity change, negative = inhibition |
| --- | --- | --- |
| CSCc1c(C(=O)Nc2ccc3c(c2)OCO3)oc2ccccc12 | inconclusive: 0.82 µM [activator, full curve] | – |
| COc1ccc(OCCSc2nnc3sc4ccccc4n23)cc1 | inconclusive: 32.6 µM [falling, single point] | – |
| O=C(NCc1ccccc1)c1cccc(N2CCCS2(=O)=O)c1 | inconclusive: 29.1 µM [activator, single point] | – |
| Cc1nc2c(-c3ccccc3)c(C)[nH]n2c(=O)c1Cl | active: 20.6 µM | – |
| CCc1ccc(N2C(=O)CN(Cc3ccc(OC)c(OC)c3)C2=S)cc1 | inconclusive: 29.1 µM [falling, single point] | – |
| CC(NC(=O)C(=O)N1CCCCC1)C(c1cccs1)N1CCN(c2ccc(F)cc2)CC1 (stereo not given) | inconclusive: 11.6 µM [falling, partial curve] | – |
| Cc1cc(C)c(NC(=O)Cn2nnc(C(=O)NCc3cccs3)c2N)c(C)c1 | inconclusive: 6.51 µM [falling, single point] | – |
| CCc1ccccc1NC(=O)COC(=O)c1c(C)nsc1NC | inconclusive: 6.51 µM [falling, partial curve, poor fit] | – |
| CCCCNc1ncnc2c1cnn2-c1ccc(Cl)cc1 | inconclusive: 1.46 µM [activator, partial curve] | – |
| O=c1c2cc(Cl)ccc2nc(-c2ccc([N+](=O)[O-])cc2)n1O | inconclusive: 29.1 µM [falling, single point] | – |
| Cc1ccccc1OCc1ccc(-c2nc(C#N)c(N3CCCCC3)o2)o1 | inactive | – |
| S=C(Nc1cccc(Cl)c1)Nc1ccc2c(c1)OCCO2 | inactive | – |
| CC1CCN(S(=O)(=O)c2ccc(NC(=O)CN3CCN(c4ccccc4)CC3)cc2)CC1 | inconclusive: 4.11 µM [falling, partial curve, poor fit] | – |
| C/C(=N\Nc1nncc2ccccc12)c1ccc(OCC(=O)N(C)C)cc1 | inconclusive: 1.16 µM [falling, partial curve, poor fit] | – |
| CC(C)(C)NC(=O)C(c1ccccc1F)N(Cc1ccco1)C(=O)c1csnn1 (stereo not given) | inconclusive: 20.6 µM [activator, partial curve, poor fit] | – |
| O=C(Nc1nnc(-c2ccc(Cl)cc2)o1)c1nc2ccccc2s1 | inconclusive: 20.6 µM [falling, single point] | – |
| Cc1ccc(N(CC(=O)Nc2cc(Cl)ccc2Oc2ccccc2)S(C)(=O)=O)cc1C | inconclusive: 29.1 µM [falling, single point] | – |
| Cc1ccc(C(=O)NNC(=O)/C=C\C(=O)O)cc1 | inconclusive: 29.1 µM [activator, single point] | – |
| CCOc1ccc(S(=O)(=O)Nc2nc3ccccc3nc2Nc2ccc(N3CCOCC3)cc2)cc1 | inconclusive: 5.8 µM [falling, partial curve] | – |
| C=C1C(=O)[C@@]23[C@H](O)C[C@@H]4C(C)(C)CC[C@H](O)[C@]4(C)[C@@H]2C[C@H](O)[C@@H]1[C@H]3O | active: 14.6 µM | – |
| O=C(Nc1ccc(Cl)cc1)c1cccnc1N1CCCCC1 | inconclusive: 29.1 µM [falling, single point] | – |
| CSc1cccc(NC(=O)c2[nH]c(C)c(C(C)=O)c2C)c1 | inconclusive: 29.1 µM [falling, single point] | – |

| Compound | Potency | activity change, negative = inhibition |
| --- | --- | --- |
| Cc1nc2scc(C)n2c(=O)c1S(=O)(=O)Nc1ccc(F)cc1 | inconclusive: 14.6 µM [falling, partial curve, poor fit] | – |
| O=c1oc(-c2ccccc2)cc(Cl)c1Cl | inconclusive: 7.31 µM [falling, partial curve, poor fit] | – |
| C=CCn1sc(N)c(C(=O)OCC)c1=S | inconclusive: 2.06 µM [falling, full curve, poor fit] | – |
| COc1ccc2oc(=Nc3cccc(F)c3)c(C(N)=O)cc2c1 | inconclusive: 29.1 µM [activator, single point] | – |
| CCOC(=O)c1ccc(NC(=O)Cc2coc3cc4c(cc23)CCC4)cc1 | inconclusive: 29.1 µM [falling, single point] | – |
| CCc1cccc(N2C(=O)CSC23C(=O)N(Cc2ccccc2F)c2ccccc23)c1 (stereo not given) | inconclusive: 29.1 µM [falling, single point] | – |
| O=c1[nH]nc(-c2ccc(NCCCO)c([N+](=O)[O-])c2)c2ccccc12 | inconclusive: 23.1 µM [falling, single point] | – |
| COc1ccc(-n2ncc(C(=O)NCc3ccc4c(c3)OCO4)c2C2CCN(C(=O)OC(C)(C)C)CC2)cc1 | active: 16.4 µM | – |
| O=C(N/N=C/c1cccc2ccccc12)c1ccc(CN2CCOCC2)cc1 | inconclusive: 16.4 µM [falling, partial curve, poor fit] | – |
| COc1c(C)cc(Br)cc1C(=O)NC(=S)Nc1ccc(Cl)c(C(=O)O)c1 | inconclusive: 5.17 µM [activator, partial curve] | – |
| Cc1ccc(S(=O)(=O)N2CCc3ccccc3C2)cc1 | inactive | – |
| COc1ccccc1CN1CC(C(=O)NCc2c(F)ccc(C)c2F)CCC1=O (stereo not given) | inconclusive: 14.6 µM [activator, partial curve] | – |
| Cn1c(=NC(=O)c2ccco2)sc2ccccc21 | inconclusive: 2.59 µM [activator, full curve] | – |
| O=[N+]([O-])c1ccc(N/N=C/c2cn(-c3ccccc3)nc2-c2ccccc2)cc1 | inactive | – |
| OCCN1CCN(CC(O)COc2ccc(-c3ccccc3)cc2)CC1 (stereo not given) | inconclusive: 11.6 µM [activator, partial curve] | – |
| CCCCN1CCS(=O)(=O)N(Cc2ccccc2Br)CC(C(=O)OC)C1 (stereo not given) | inactive | – |
| COc1ccc(-c2ccc(N(C)C)cc2)cc1C1C2C=CCCC2(C)C(=O)N1Cc1ccccc1 (stereo not given) | inconclusive: 29.1 µM [falling, single point] | – |
| N#CCSc1nnc(-c2sc3ccccc3c2Cl)o1 | inactive | – |
| Cc1cccc(CCN(C(=O)Cc2cccs2)C(C(=O)NC2CCCCC2)c2cccnc2)c1 (stereo not given) | inconclusive: 29.1 µM [activator, partial curve, poor fit] | – |
| Cc1cc(NC(=O)c2ccccc2NS(=O)(=O)c2c(C)c(C)cc(C)c2C)no1 | inconclusive: 20.6 µM [falling, partial curve, poor fit] | – |
| CC(=O)Nc1ccc2nsnc2c1 | inconclusive: 0.0326 µM [falling, full curve, poor fit] | – |
| Cc1cc(C)c(NC(=O)COCc2cc(-c3cccs3)on2)c(C)c1 | inactive | – |

Given bar-delimited: entries from further up
Compound | Potency | activity change, negative = inhibition
COc1ccc2oc(=Nc3cccc(F)c3)c(C(N)=O)cc2c1 | inconclusive: 29.1 µM [activator, single point] | –
O=C(N/N=C/c1cccc2ccccc12)c1ccc(CN2CCOCC2)cc1 | inconclusive: 16.4 µM [falling, partial curve, poor fit] | –
Cc1cc(C)c(NC(=O)COCc2cc(-c3cccs3)on2)c(C)c1 | inactive | –

(next part)

| Compound | Potency | activity change, negative = inhibition |
| --- | --- | --- |
| CC(OC(=O)c1cc2sccc2n1C)C(=O)NCCc1ccccc1 (stereo not given) | inconclusive: 14.6 µM [falling, partial curve, poor fit] | – |
| O=C(COc1ccc(C(=S)N2CCOCC2)cc1)Nc1ccccc1C(F)(F)F | inconclusive: 18.4 µM [falling, partial curve, poor fit] | – |
| Cc1ccc(-c2cc(C)nc3ncnn23)cc1 | inactive | – |
| Clc1ccc(-c2c[nH]c3ccccc23)nn1 | inconclusive: 16.4 µM [activator, single point] | – |
| O=C(N[C@@H]1CCC(=O)N(CC[C@H](Sc2ccc(Br)cc2)c2ccccc2)CC1)OCc1ccccc1 | inconclusive: 29.1 µM [falling, partial curve, poor fit] | – |
| CCOc1ccc(/C=N/NC(=O)c2ccccc2NC(=O)c2ccc(OC)cc2)cc1 | inactive | – |
| Cc1csc(SCC(=O)Nc2nncs2)n1 | inconclusive: 20.6 µM [activator, single point] | – |
| CCOC(=O)C1=NNC(C(=O)c2ccccc2)C1c1ccc(Cl)cc1 (stereo not given) | inconclusive: 25.9 µM [falling, partial curve, poor fit] | – |
| CCN(Cc1ccccc1)S(=O)(=O)c1ccc(C(=O)Nc2nnc(C3CC3)o2)cc1 | active: 8.2 µM | – |
| COc1ccc(OC)c(-c2cc(C(=O)N/N=C/c3cc(OC)c(OC)cc3OC)c3ccccc3n2)c1 | inconclusive: 25.9 µM [activator, single point] | – |
| Cc1cccn2c(=O)c(/C=C3\SC(=S)N(CC(C)C)C3=O)c(NCCCOC(C)C)nc12 | inconclusive: 7.31 µM [falling, partial curve, poor fit] | – |
| O=C(CCCCCBr)N1CCC(CC2CC(c3ccc(Cl)cc3)=NO2)(C(=O)NCC2CCCCC2)CC1 (stereo not given) | inactive | – |
| O=C(CSc1nnc(NC(=O)c2ccc3c(c2)OCO3)s1)NCc1ccco1 | – | inconclusive: 48.9% [activator] |
| CCOC(=O)C1=C(NC(=S)NC(=O)c2ccccc2)c2ccccc2CC1C(C)C (stereo not given) | inconclusive: 2.59 µM [activator, full curve] | – |
| CCOC(=O)c1c(C)oc2ccc(N(C(=O)c3ccncc3)S(=O)(=O)c3ccc(F)cc3)cc12 | inconclusive: 25.9 µM [falling, single point] | – |
| Cc1nc(NC(=O)C2CC3CCCC(C2)C3=O)sc1C (stereo not given) | inconclusive: 10.3 µM [activator, partial curve] | – |
| Cn1c(=O)c2c(ncn2CC(=O)OCC(=O)Nc2ccc(Cl)cc2Cl)n(C)c1=O | inconclusive: 2.91 µM [activator, partial curve, poor fit] | – |
| CCOC(=O)C(C)On1c(-c2ccccc2)nc2ccc([N+](=O)[O-])cc21 (stereo not given) | inconclusive: 3.66 µM [activator, full curve, poor fit] | – |
| CC(=O)Nc1ccc(-c2csc(NC(=O)C3=COCCO3)n2)cc1 | inconclusive: 4.11 µM [activator, full curve] | – |
| Cc1ccccc1CNC(=O)Cc1csc2ccccc12 | inactive | – |
| Cc1cc(C)c(NC(=S)NC(NC(=O)c2ccccc2)C(Cl)(Cl)Cl)c(C)c1 (stereo not given) | inconclusive: 23.1 µM [falling, single point] | – |

Reference: PubChem BioAssay AID504444 (National Center for Advancing Translational Sciences (NCATS), 2011)
